# Assay results from PubChem BioAssay AID2685 (National Center for Advancing Translational Sciences (NCATS), 2010).
# The list shows a part of the results. These are further read-outs of the screen, such as a control signal, another cell line or another target. No call is given for them. Most of these compounds were active or inconclusive in the main read-out, so they are no random draw. The note in brackets gives the kind of curve behind each potency; many fits are weak.
# Experiment: qHTS Assay for Lipid Storage Modulators in Drosophila S3 Cells;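 on cell number change: cells counted by Cell Tracker Red CMTPX staining in the red channel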
# Settings: BODIPY lipid droplet fluorescence, 18-24 h; for cell number change: measured here: cell count max response, cells fed with added oleic acid
# Procedure, shortened: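 Laser-scanning cytometry quantifies lipid droplet accumulation (500–530 nm total intensity; droplet/cell object ratio) in oleic acid-fed (400 uM added) Drosophila S3 cells treated with a concentration series. 20 uM Triacsin C defined 100% inhibition.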
# [1] = measured here: lipid fluorescence (Fed channel) AC50, cells fed with added oleic acid
# [2] = measured here: cell number channel AC50, cells fed with added oleic acid
SMILES,cell number change,AC50 [1],AC50 [2]
CC1(C)Cc2c(C#N)c(SCCC#N)nc(N3CCOCC3)c2CO1,-4.93%,"29.1 µM [falling, single point]",–
CCCc1cc(=O)oc2c3c(cc(OCC(=O)N[C@@H](CSC)C(=O)O)c12)OC(C)(C)CC3,43.7%,–,"13 µM [rising, partial curve, poor fit]"
O=C(O)CC1(c2ccccc2)C(=O)c2ccccc2C1=O,40.1%,–,"29.1 µM [rising, single point]"
CSc1nc(C)c(C(=O)C[n+]2ccc(C)cc2)cc1C#N,-3.91%,"20.6 µM [falling, partial curve, poor fit]","0.00517 µM [falling, full curve, poor fit]"
CCN(CC)S(=O)(=O)c1ccc(C(=O)NCc2ccc(C)cc2)cc1,-28.2%,"20.6 µM [falling, single point]",–
Cc1ccc(CNC(=O)CCS(=O)(=O)c2ccc3c(c2)CC(C)N3C(=O)C2CC2)cc1 (configuration not stated),-14.4%,"0.0082 µM [falling, full curve, poor fit]",–
O=C(COC(=O)C1=COCCO1)Nc1ccc(F)cc1,-1.61%,–,–
COc1ccc(Cl)cc1NC(=O)CCNC(=O)OCc1ccccc1,–,"10.3 µM [falling, partial curve]",–
COc1ccc(C(C)=O)cc1CSc1nnc(Nc2ccc(C)cc2)s1,-12.2%,–,"4.61 µM [rising, single point]"
COc1cc(OC)c(NC(=O)c2c(-c3ccccc3)noc2C)cc1Cl,–,–,"0.326 µM [rising, partial curve]"
CN(C)CCCNC(=O)CCC1CCCCC1,-187%,"29.1 µM [falling, single point]","0.651 µM [falling, single point]"
Cc1c(C(=O)NCc2ccoc2)oc2ccc3c(c12)C(=O)CC(C)(C)O3,-26.5%,"20.6 µM [falling, partial curve, poor fit]",–
CCC(=O)Nc1ccc2c(c1)nc(CN1CCN(C(C)=O)CC1)n2C,9.19%,–,–
CCOC(=O)CSc1nnc(Cc2ccccc2)n1CC1CCCO1 (configuration not stated),-3.1%,"0.231 µM [falling, full curve, poor fit]",–
Cc1ccc2c(c1)N(CC(=O)NCc1cccs1)C(=O)C(C)O2 (configuration not stated),-40%,"0.0461 µM [falling, full curve]","9.2 µM [falling, partial curve, poor fit]"
C/C(=N\NC(=O)c1cc(C)[nH]n1)c1cccs1,-16.9%,–,"0.13 µM [falling, full curve, poor fit]"
O=C(CSc1nnc(CNC(=O)c2ccccc2)o1)c1ccccc1,27.5%,"4.47 µM [rising, partial curve]",–
COCCNC(=O)Cn1cnc2sc(C)c(S(=O)(=O)N3CCN(c4ccccc4OC)CC3)c2c1=O,20.8%,"1.16 µM [falling, single point]",–
N#Cc1c(-c2ccccc2)nc(-c2cccnc2)[nH]c1=O,19.8%,"18.4 µM [rising, partial curve]",–

SMILES,cell number change,AC50 [1],AC50 [2]
NC(=O)Cc1ccc(C(=O)c2ccccc2)s1,31.5%,"20.6 µM [rising, single point]","0.00411 µM [rising, full curve, poor fit]"
Cc1ccc(CN2C(=O)CCC2C(=O)NCCCN2CCCC(C)C2)cc1 (configuration not stated),-91.5%,"2.91 µM [falling, full curve]","3.26 µM [falling, full curve]"
CCC/C(=N\NC(=O)c1ccco1)c1ccc(Cl)s1,-3.97%,–,–
COc1ccccc1N1CCN(C(=O)c2ccccc2SCC(=O)NCc2ccco2)CC1,–,–,"1.46 µM [rising, partial curve, poor fit]"
Cc1cccc(NC(=O)CCN2CCCC(C)C2)c1 (configuration not stated),3.94%,"29.1 µM [rising, single point]",–
O=C(Nc1ccccc1C(F)(F)F)c1cc(-c2ccc(O)cc2)on1,-61.7%,"29.1 µM [falling, single point]","18.4 µM [falling, partial curve]"
O=C(OCCc1cc2ccccc2c(=O)o1)c1cccs1,-6.66%,"0.651 µM [falling, single point]",–
CSc1nc(C(=O)N2CCCC(Nc3ccc(C)c(C)c3)C2)cs1 (configuration not stated),5.25%,"1.78 µM [rising, partial curve]","3.55 µM [rising, partial curve, poor fit]"
Cc1nn2c(-c3ccccn3)ccnc2c1Cl,22.4%,"0.103 µM [rising, full curve, poor fit]","0.0731 µM [rising, full curve, poor fit]"
COc1ccc(CCNCC(C)c2ccccc2)cc1 (configuration not stated),34.2%,–,"4.11 µM [rising, full curve, poor fit]"
CCC(C)[C@H](NC(=O)[C@@H]1CSC2c3ccccc3C(=O)N21)C(=O)NCc1ccco1 (some centres not stated),23.3%,–,–
CC(Oc1ccc2ccc(=O)oc2c1)C(=O)N1CCOCC1 (configuration not stated),-43.4%,"5.17 µM [falling, full curve]","4.11 µM [falling, full curve]"
CC1(c2cnc(Nc3ccccc3)s2)CCC(=O)O1 (configuration not stated),12%,"6.51 µM [rising, single point]","5.17 µM [falling, single point]"
Cn1nnc(NC(=S)NC(=O)c2cccc3c(Cl)cccc23)n1,-4.25%,"6.51 µM [rising, single point]",–
CN(CC(=O)Nc1cccc(F)c1)C(=O)c1cc(S(=O)(=O)N(C)C)ccc1N1CCCC1,3.02%,"23.1 µM [rising, partial curve]",–
COc1ccc(C)cc1NC(=O)CN1C(=O)COc2ccc(S(=O)(=O)N3CCOCC3)cc21,1.48%,–,–
Cc1cccc(Nc2nc3ccccc3s2)c1C,47.3%,"2.31 µM [rising, partial curve]","29.1 µM [rising, single point]"
O=C(C1CCCN(Cc2cccc(Cl)c2)C1)N1CCCCC1 (configuration not stated),8.66%,"10.3 µM [rising, partial curve, poor fit]",–

# Reformatted with bars between the fields: two of the compounds above.
SMILES | cell number change | AC50 [1] | AC50 [2]
Cc1nn2c(-c3ccccn3)ccnc2c1Cl | 22.4% | 0.103 µM [rising, full curve, poor fit] | 0.0731 µM [rising, full curve, poor fit]
CCC(C)[C@H](NC(=O)[C@@H]1CSC2c3ccccc3C(=O)N21)C(=O)NCc1ccco1 (some centres not stated) | 23.3% | – | –
